Some entries share one result that the patent states for a list of compounds.
System: primary cells of intestinal cancer
Assay: Effect of different concentrations of factors in CA-1 medium on proliferation (ratio of cell number to Blank Control)
Type: cell-based, human

Question: What does the source list for cholera toxin?
Answer: amount in culture medium, more preferably: 2.5 to 5 ng/mL; amount in culture medium, preferably: 1.25 to 20 ng/mL
